From ChEMBL document CHEMBL3988442, “University of Dundee, Small-Polar-MMV Screening Library” (2021).

Chains of the proteins cited; added tags and fusions are not shown.
UniProt E9BF75, entry or part of it: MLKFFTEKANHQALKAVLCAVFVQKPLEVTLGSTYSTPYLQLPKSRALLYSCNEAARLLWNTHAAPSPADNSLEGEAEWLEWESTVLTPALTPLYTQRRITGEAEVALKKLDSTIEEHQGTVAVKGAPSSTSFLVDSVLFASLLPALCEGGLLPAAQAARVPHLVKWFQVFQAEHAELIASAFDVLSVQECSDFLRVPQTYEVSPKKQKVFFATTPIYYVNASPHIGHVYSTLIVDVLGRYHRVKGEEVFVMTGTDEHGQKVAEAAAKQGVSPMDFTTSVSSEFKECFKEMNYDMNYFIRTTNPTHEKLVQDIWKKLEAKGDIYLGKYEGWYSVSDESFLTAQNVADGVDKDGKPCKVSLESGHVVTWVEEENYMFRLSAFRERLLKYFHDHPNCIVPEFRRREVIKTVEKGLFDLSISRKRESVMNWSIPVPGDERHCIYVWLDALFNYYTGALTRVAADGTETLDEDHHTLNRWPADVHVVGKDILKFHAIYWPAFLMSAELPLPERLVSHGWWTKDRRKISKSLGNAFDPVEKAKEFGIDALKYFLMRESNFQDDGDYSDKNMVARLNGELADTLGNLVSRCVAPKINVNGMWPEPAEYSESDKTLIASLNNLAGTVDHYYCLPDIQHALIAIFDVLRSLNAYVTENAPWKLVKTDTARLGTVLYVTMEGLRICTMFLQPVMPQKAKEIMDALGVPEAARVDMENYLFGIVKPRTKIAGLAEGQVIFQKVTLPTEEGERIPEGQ

Results are percentages, as filed. How 0% and 100% were set is not recorded. Most values in the screen are low, and negative values occur. This is an unselected part of the compounds tested. A dash means the value is not listed here; it may have been measured.

LdMetRS: 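Methionyl-tRNA synthetase (putative), Leishmania donovani (UniProt E9BF75). Primary screen of methionyl-tRNA synthetase; the read-out is not stated. The test concentration is not given. The values are filed as inhibition. Size under these conditions: about 68,000 compounds, about 24 of them at 50% or above in at least one test.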
Mtb heat-shock: 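Assay on Mycobacterium tuberculosis, filed only as a heat shock assay from Cornell; the read-out is not stated. The concentration is filed as 10 mM, unlikely as a test dose, so the dose is not known. Direction is inferred from retests: higher values go with stronger inhibition. About 69,000 compounds were tested under these conditions; 1.4% (about 930) showed 50% or more at least once.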

{"structure": "CN(C)CCN1CCN(Cc2ccco2)Cc2cccnc21.O=C(O)C(F)(F)F.O=C(O)C(F)(F)F.O=C(O)C(F)(F)F", "Mtb heat-shock": -32.7}
{"structure": "CC(C)c1nccn1CCCNC(=O)c1ccc(-c2cccnc2)nc1", "Mtb heat-shock": -9.839}
{"structure": "C[C@@H]1CN(CCOc2ccc(Cl)cc2)CC[C@@]1(O)C1CCOCC1", "LdMetRS": 16.33, "Mtb heat-shock": -2.551}
{"structure": "CC(C)N(C)CCCNC(=O)c1cnn(C(C)(C)C)c1C(F)(F)F", "LdMetRS": 7.796, "Mtb heat-shock": 7.701}
{"structure": "COc1cc(CNc2cnn(CCN3CCOCC3)c2)cc(OC)c1", "LdMetRS": 13.8, "Mtb heat-shock": 7.721}
{"structure": "Cc1nc(NC2CCCC2)cc(C2CCN2C(=O)c2cnn(C)c2)n1", "stereo": "stereo not drawn", "LdMetRS": 15.1, "Mtb heat-shock": -3.727}
{"structure": "O=C(O)C(F)(F)F.[H][C@]12CCN(S(=O)(=O)c3ccccc3)CC[C@@]1([H])S(=O)(=O)CCN2CC(C)C", "Mtb heat-shock": -29.65}
{"structure": "OCCN1CCN(Cc2cnc3c(-c4ccccc4)cnn3c2)CC1", "LdMetRS": -1.37, "Mtb heat-shock": -19.79}
{"structure": "O=C(O)C(F)(F)F.[H][C@@]12CCN(C3CCCC3)C[C@]1([H])[C@H](C(=O)NC1CCC1)CCO2", "Mtb heat-shock": -4.618}
{"structure": "Cc1ncc2c(n1)CCN(Cc1ncc(C(C)(C)C)o1)C2", "LdMetRS": 15.62, "Mtb heat-shock": -2.47}
{"structure": "O=C(CCC1CCCO1)NS(=O)(=O)c1ccc(Cl)cc1", "stereo": "stereo not drawn", "LdMetRS": 13.73, "Mtb heat-shock": 2.708}
{"structure": "N#Cc1cccc(CN2CC[C@@H]3CN(c4ncccn4)CCO[C@@H]3C2)c1", "LdMetRS": 3.636}
{"structure": "CC(C)N1CCOC(Cc2nn3c(Cc4ccccc4)nnc3s2)C1", "stereo": "stereo not drawn", "LdMetRS": 11.93, "Mtb heat-shock": -13.36}
{"structure": "COCCN(Cc1nccs1)C(=O)c1cc(-c2ccc(C)s2)n[nH]1", "LdMetRS": 10.57, "Mtb heat-shock": -2.379}
{"structure": "CC(C)CN1CCC(c2nc3ccc(NC(C)C)cn3n2)CC1.O=C(O)C(F)(F)F.O=C(O)C(F)(F)F", "Mtb heat-shock": -40.56}
{"structure": "O=C(O)C(F)(F)F.O=C(O)C(F)(F)F.[H][C@]12CC(=O)N(Cc3cccc(C)n3)[C@@]1([H])CCN2Cc1ccco1", "Mtb heat-shock": -4.137}
{"structure": "Cn1cc(C2CC(=O)NC23CCN(C(=O)c2cccnc2)CC3)cn1.O=C(O)C(F)(F)F", "stereo": "stereo not drawn", "Mtb heat-shock": 1.515}
{"structure": "CN(CCc1ccccn1)C(=O)c1cn2c(n1)CNCC2", "LdMetRS": 2.847, "Mtb heat-shock": -26.77}
{"structure": "CNC(=O)CN1CCC(CN(C)CCSc2ccccc2)CC1", "LdMetRS": 5.919, "Mtb heat-shock": -8.287}
{"structure": "Cc1noc([C@@H]2CCO[C@@H]3CCN(Cc4ccc(C)s4)C[C@@H]32)n1", "LdMetRS": 9.333}
{"structure": "CC(NC(N)=O)C(=O)Nc1ccc(OCc2cccc(F)c2)c(F)c1", "stereo": "stereo not drawn", "LdMetRS": 10.14, "Mtb heat-shock": 10.97}
{"structure": "Cn1cccc1C(=O)N1C[C@@H](OCc2ccncc2)[C@@H]2OCCC[C@@H]21", "LdMetRS": 3.746}
{"structure": "COc1c(C2CCCN2C(=O)c2ccoc2)c(C)nn1C", "stereo": "stereo not drawn", "LdMetRS": 15.72, "Mtb heat-shock": -18.54}
{"structure": "[H][C@@]12CS(=O)(=O)C[C@]1([H])N(Cc1nc(C)n[nH]1)CCN2C(=O)C1CCC1", "Mtb heat-shock": 19.66}
{"structure": "CCCn1cnnc1CNC(=O)CC1C(=O)NCCN1C(C)C", "stereo": "stereo not drawn", "LdMetRS": 3.896, "Mtb heat-shock": -0.998}
{"structure": "Cc1noc(CCCC(=O)N2CCCCC2c2nccs2)n1", "stereo": "stereo not drawn", "LdMetRS": -1.773, "Mtb heat-shock": -12.06}
{"structure": "CCNc1cc2c(nn1)CCN(C(=O)c1cc3cc(C)ccc3o1)C2", "LdMetRS": 18.21, "Mtb heat-shock": -8.085}
{"structure": "O=C(c1cccc(Cl)c1)N1CCCn2c(CN3CCCCC3)nnc2C1", "LdMetRS": 8.711}
{"structure": "CCCc1nc(C)c(C(=O)NCCn2nc3ccccn3c2=O)s1", "LdMetRS": 12.38, "Mtb heat-shock": -32.46}
{"structure": "CN1CCc2nc(C3CCCN(S(=O)(=O)N4CCCC4)C3)ncc2C1", "stereo": "stereo not drawn", "LdMetRS": 20.94, "Mtb heat-shock": 33.37}
{"structure": "CN(C)C(=O)CN1CCCC(c2cncc(-c3cccc(Cl)c3)n2)C1", "stereo": "stereo not drawn", "LdMetRS": 16.83, "Mtb heat-shock": -17.71}
{"structure": "Cc1cccc(CN2CC[C@H]3C[C@H](C)O[C@@H]3C2)n1", "LdMetRS": 9.333}

Some entries from above, unchanged:

structure	LdMetRS	Mtb heat-shock
Cc1cccc(CN2CC[C@H]3C[C@H](C)O[C@@H]3C2)n1	9.333	-
Cc1noc(CCCC(=O)N2CCCCC2c2nccs2)n1 (stereo not drawn)	-1.773	-12.06